Source: PubChem BioAssay AID248 (DTP/NCI, 2004)
The list does not hold the whole screen: it is rich in T/C values a quarter to a half above the control, in often repeated tests (any T/C) and in doses without a T/C. Other doses and runs of a compound stand elsewhere. T/C: endpoint of the treated group in % of that of the vehicle group. Some doses have a count of surviving animals in place of a T/C: the source holds a T/C of zero for them, seemingly a mark for toxic or unscored doses. Some survivor counts are full or nearly so, which does not show that the dose was tolerated: survival well below the control is almost never listed, so the zero probably covers shortened survival too. Survivors were counted at the toxicity check, usually on the fifth day, unless a day is given; later deaths do not show. Schedules are NCI's codes, taken here to give the interval after Q, in days (D) or hours (H), and the number of doses after X. Some doses were run more than once; their values stand side by side, smallest first. Some schedules carry Z or #; the key to these is not given. Some molecules as drawn cover several salts, stereoisomers or complexes of the source; a dose is that of the sample tested. Additions like (4×) stand for listed records that agree. Where survival is the endpoint, the PubChem record calls one and a half times the control and up active, and a quarter to a half above the control has no call in these data; cut-offs in other NCI protocols can differ.

Tested on: L1210 leukemia ip in BDF1 mice, survival T/C
Experiment: NCI In Vivo Anticancer Drug Screen. Data for tumor model L1210 Leukemia (intraperitoneal) in B6D2F1 (BDF1) mice
Conditions: T/C endpoint: mean survival time, higher T/C = longer survival
[1] = dose: 30.0 mg/kg/injection, schedule: Q01DX Z (ip), vehicle: saline
[2] = dose: 40.0 mg/kg/injection, schedule: Q01DX001 (ip), vehicle: saline
[3] = dose: 80.0 mg/kg/injection, schedule: Q01DX001 (ip), vehicle: saline
[4] = dose: 100.0 mg/kg/injection, schedule: Q01DX001 (ip), vehicle: saline
[5] = dose: 200.0 mg/kg/injection, schedule: Q01DX001 (ip), vehicle: saline
[6] = dose: 400.0 mg/kg/injection, schedule: Q01DX001 (ip), vehicle: saline
[7] = dose: 200.0 mg/kg/injection, schedule: Q04DX003 (ip), vehicle: saline
[8] = dose: 200.0 mg/kg/injection, schedule: Q01DX009 (ip), vehicle: Klucel (hydroxypropylcellulose) (HPC)
[9] = dose: 25.0 mg/kg/injection, schedule: Q01DX009 (ip), vehicle: saline
[10] = dose: 50.0 mg/kg/injection, schedule: Q04DX003 (ip), vehicle: saline
[11] = dose: 100.0 mg/kg/injection, schedule: Q04DX003 (ip), vehicle: saline
[12] = dose: 400.0 mg/kg/injection, schedule: Q04DX003 (ip), vehicle: saline with Tween-80
[13] = dose: 400.0 mg/kg/injection, schedule: Q01DX009 (ip), vehicle: Klucel (hydroxypropylcellulose) (HPC)

CN1CCC(CNC(=O)CCCCCCCCC(=O)NCC2(c3ccccc3)CCN(C)CC2)(c2ccccc2)CC1
survivor count (dose: 10.0 mg/kg/injection, schedule: Q01DX Z (ip), vehicle: saline): 3 of 6 | survivor count (dose: 10.0 mg/kg/injection, schedule: Q04DX003 (ip), vehicle: saline with Tween-80): 5 of 6 | survivor count (dose: 20.0 mg/kg/injection, schedule: Q04DX003 (ip), vehicle: saline with Tween-80): 0 of 6 | survivor count [1]: 0 of 6 | survivor count (dose: 100.0 mg/kg/injection, schedule: Q01DX Z (ip), vehicle: saline): 0 of 6 | survivor count (dose: 300.0 mg/kg/injection, schedule: Q01DX Z (ip), vehicle: saline): 0 of 6

CN=C(NC)c1ccc(NC(=O)c2ccc(C(=O)Nc3ccc(C(=NC)NC)cc3)c([N+](=O)[O-])c2)cc1
survivor count (dose: 15.0 mg/kg/injection, schedule: Q01DX Z (ip), vehicle: saline): 1 of 6 and 3 of 6 | survivor count [1]: 0 of 6 | survivor count (dose: 60.0 mg/kg/injection, schedule: Q01DX Z (ip), vehicle: saline): 0 of 6 | survivor count (dose: 120.0 mg/kg/injection, schedule: Q01DX Z (ip), vehicle: saline): 0 of 6

CNC(=O)Oc1cccc(CN(C)C)c1
survivor count [2]: 1 of 4 | survivor count [3]: 0 of 4 | survivor count [4]: 0 of 4 | survivor count [5]: 0 of 4 | survivor count [6]: 0 of 4

CCCCOC(OCCCC)C(C)(C)CN(C)C
survivor count (dose: 100.0 mg/kg/injection, schedule: Q04DX002 (ip), vehicle: saline): 0 of 3 | survivor count (dose: 200.0 mg/kg/injection, schedule: Q04DX002 (ip), vehicle: saline): 0 of 3 | survivor count (dose: 400.0 mg/kg/injection, schedule: Q04DX002 (ip), vehicle: saline): 0 of 3

c1ccc(CSc2ncnc3nncnc23)cc1
survivor count (dose: 400.0 mg/kg/injection, schedule: Q01DX001 (ip), vehicle: other): 0 of 4

O=S(=O)(O)c1ccc2c(O)cc(S(=O)(=O)O)cc2c1
survivor count [7]: 6 of 6

O=[N+]([O-])c1ccc(O)c(N=Cc2ccc(C=Nc3cc([N+](=O)[O-])ccc3O)cc2)c1
survivor count [8]: 3 of 6

O=C(NCCCCCCCCCCNC(=O)Nc1cccc(C2=NCCN2)c1)Nc1cccc(C2=NCCN2)c1
survivor count (dose: 40.0 mg/kg/injection, schedule: Q01DX Z (ip), vehicle: water): 0 of 6 | survivor count (dose: 80.0 mg/kg/injection, schedule: Q01DX Z (ip), vehicle: water): 0 of 6

O=C(CBr)Nc1nccs1
survivor count [9]: 0 of 6 | survivor count [10]: 0 of 6 | survivor count [11]: 0 of 6 | survivor count [7]: 0 of 6 | survivor count (dose: 400.0 mg/kg/injection, schedule: Q04DX003 (ip), vehicle: saline): 0 of 6

CCCNC1=C(N2CC2)C(=O)C(NCCC)=C(N2CC2)C1=O
T/C (dose: 1.5 mg/kg/injection, schedule: Q04DX003 (ip), vehicle: saline): 125 % of control | T/C (dose: 3.12 mg/kg/injection, schedule: Q01DX009 (ip), vehicle: saline): 126 and 132 % of control | T/C (dose: 6.0 mg/kg/injection, schedule: Q04DX003 (ip), vehicle: saline): 125 and 128 % of control | T/C (dose: 6.25 mg/kg/injection, schedule: Q01DX009 (ip), vehicle: saline): 143 and 148 % of control | T/C (dose: 12.5 mg/kg/injection, schedule: Q01DX009 (ip), vehicle: saline): 129 and 130 % of control | survivor count [9]: 6 of 6 | survivor count [10]: 5 of 6 | survivor count [11]: 0 of 6

NC(=O)/C=C/C(=O)O
survivor count (dose: 400.0 mg/kg/injection, schedule: Q01DX009 (ip), vehicle: saline with Tween-80): 0 of 3 and 0 of 6 | survivor count (dose: 400.0 mg/kg/injection, schedule: Q04DX002 (ip), vehicle: saline with Tween-80): 3 of 3

Nc1nc(N)c2nc(CO)cnc2n1
survivor count [8]: 2 of 3

COc1cc2c(cc1OC)C(NC(C)C)CCCC2 (stereo not drawn)
survivor count [6]: 0 of 4

O=C(Nc1ccccc1)Nc1ccc([N+](=O)[O-])cc1[N+](=O)[O-]
survivor count [12]: 6 of 6

CCC[CH2][Sn]([CH2]CCC)=[N]S(=O)(=O)c1ccc(Cl)c(C)c1
survivor count [2]: 1 of 4 | survivor count [3]: 0 of 4 | survivor count [4]: 0 of 4 | survivor count [5]: 0 of 4 | survivor count [6]: 0 of 4

COc1cc(C(=O)NNC(=O)C(=O)NNC(=O)c2cc(OC)c(OC)c(OC)c2)cc(OC)c1OC
survivor count (dose: 25.0 mg/kg/injection, schedule: Q01DX009 (ip), vehicle: Klucel (hydroxypropylcellulose) (HPC)): 5 of 6 | survivor count (dose: 100.0 mg/kg/injection, schedule: Q01DX009 (ip), vehicle: Klucel (hydroxypropylcellulose) (HPC)): 0 of 6 and 1 of 6 | survivor count [8]: 4 of 6 | survivor count [13]: 4 of 6

CON=C1CCC(C(C)(C)C)CC1 (stereo not drawn)
survivor count (dose: 150.0 mg/kg/injection, schedule: Q01DX001 (ip), vehicle: carboxymethylcellulose (CMC)): 1 of 6 | survivor count (dose: 300.0 mg/kg/injection, schedule: Q01DX001 (ip), vehicle: carboxymethylcellulose (CMC)): 2 of 6

CC(C)C(CN)(CCCCN1CCCCC1)c1cccc2ccccc12 (stereo not drawn)
survivor count (dose: 200.0 mg/kg/injection, schedule: Q04DX003 (ip), vehicle: saline with Tween-80): 1 of 6 | survivor count [12]: 0 of 6

CCCc1cc2c(cc1CS(=O)(=O)c1ccccc1)OCO2
survivor count [8]: 6 of 6 | T/C [13]: 136 % of control | survivor count [13]: 1 of 6

C/C=C/C[n+]1c(C)ccc2ccccc21
survivor count [4]: 2 of 6 | survivor count [5]: 0 of 6 | survivor count [6]: 0 of 6

ClCCCCCCCCCCCl
T/C [13]: 131 % of control

O=C(N/N=C/c1cccc([N+](=O)[O-])c1)c1cccc2ccccc12
survivor count [4]: 4 of 4

CCC[N+]1(C)CCOCC1
survivor count (dose: 150.0 mg/kg/injection, schedule: Q01DX001 (ip), vehicle: saline): 0 of 6 and 1 of 6 | survivor count (dose: 300.0 mg/kg/injection, schedule: Q01DX001 (ip), vehicle: saline): 0 of 6 (2×)

C=C1C(=O)OC2CC3(C)C(O)CCC(=C)C3C(OC(C)=O)C12 (stereo not drawn) (tested in a mixture with another compound)
survivor count [5]: 2 of 6 | survivor count [6]: 0 of 6

NC(=O)c1c(/N=C/c2cc(Br)ccc2O)sc2c1CCCC2
survivor count (dose: 100.0 mg/kg/injection, schedule: Q04DX002 (ip), vehicle: saline with Tween-80): 3 of 3 | survivor count (dose: 200.0 mg/kg/injection, schedule: Q04DX002 (ip), vehicle: saline with Tween-80): 3 of 3

C[C@]12CC[C@H](OC3OC(CO)C(O)C(O)C3O)C[C@H]1CC[C@@H]1[C@@H]2CC[C@]2(C)[C@@H](C3=CCOC3=O)CC[C@]12O (stereo partly drawn)
survivor count (dose: 4.0 mg/kg/injection, schedule: Q01DX010 (ip), vehicle: saline): 6 of 6 | survivor count (dose: 32.0 mg/kg/injection, schedule: Q01DX001 (ip), vehicle: saline): 2 of 4

OCCN(CCO)CCN1c2ccccc2Sc2ccccc21
survivor count [6]: 2 of 4

Clc1cc(Cl)c(I)c(Cl)c1
survivor count [13]: 6 of 6

CC(=O)[O][Hg][c]1cc(C)c(O)c([N+](=O)[O-])c1
survivor count (dose: 12.5 mg/kg/injection, schedule: Q01DX009 (ip), vehicle: Klucel (hydroxypropylcellulose) (HPC)): 4 of 6 | survivor count (dose: 25.0 mg/kg/injection, schedule: Q04DX003 (ip), vehicle: Klucel (hydroxypropylcellulose) (HPC)): 2 of 6 | survivor count (dose: 50.0 mg/kg/injection, schedule: Q04DX003 (ip), vehicle: Klucel (hydroxypropylcellulose) (HPC)): 0 of 6 | survivor count (dose: 100.0 mg/kg/injection, schedule: Q04DX003 (ip), vehicle: Klucel (hydroxypropylcellulose) (HPC)): 0 of 6 | survivor count (dose: 200.0 mg/kg/injection, schedule: Q04DX003 (ip), vehicle: Klucel (hydroxypropylcellulose) (HPC)): 0 of 6 | survivor count (dose: 400.0 mg/kg/injection, schedule: Q04DX003 (ip), vehicle: Klucel (hydroxypropylcellulose) (HPC)): 0 of 6
